Data taken from patent publication US12305200B2, “Methods and compositions for vault nanoparticle immobilization of therapeutic molecules and for vault targeting” (AUKERA, INC., priority 2017, dated 2025).
Results are given in words; binding and its absence hold for the method and conditions named. Some binding calls cover weakened binding; strength is not graded here.

Protein sequences, listed by entry. Tags and fused reporters are not part of them.
UniProt P30550: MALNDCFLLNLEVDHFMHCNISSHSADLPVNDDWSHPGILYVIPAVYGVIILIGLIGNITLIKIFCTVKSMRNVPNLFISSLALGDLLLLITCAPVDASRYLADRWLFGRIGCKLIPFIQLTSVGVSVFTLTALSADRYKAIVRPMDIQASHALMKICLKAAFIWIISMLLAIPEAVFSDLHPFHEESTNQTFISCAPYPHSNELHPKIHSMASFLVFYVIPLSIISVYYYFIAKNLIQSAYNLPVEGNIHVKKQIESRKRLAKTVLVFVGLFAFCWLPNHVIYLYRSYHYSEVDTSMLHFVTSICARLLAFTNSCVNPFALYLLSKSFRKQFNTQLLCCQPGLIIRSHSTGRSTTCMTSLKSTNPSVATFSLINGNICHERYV

Target: gastrin releasing peptide receptor (GRPR) (human) (UniProt P30550)
Experiment: in vitro binding of DyLight-488 labelled vaults to GRPR-expressing PC-3 cells, epifluorescence microscopy

- binding: binds
B1: rat vault nanoparticles modified to express the gastrin releasing peptide (GRP) ligand in the unstructured region of the shoulder domain (designed binder)
chain: MATEEAIIRIPPYHYIHVLDQNSNVSRVEVGPKTYIRQDNERVLFAPVRMVTVPPRHYCIVANPVSRDTQSSVLFDITGQVRLRHADQEIRLAQDPFPLYPGEVLEKDITPLQVVLPNTALHLKALLDFEDKNGDKVMAGDEWLFEGPGTYIPQKEVEVVEIIQATVIKQNQALRLRARKECFDREGKGRVTGEEWLVRSVGAYLPAVFEEVLDLVDAVILTEKTALHLRALQNFRDLRGVLHRTGEEWLVTVQDTEAHVPDVYEEVLGVVPITTLGPRHYCVILDPMGPDGKNQLGQKRVVKGEKSFFLQPGERLERGIQDVYVLSEQQGLLLKALQPLEEGESEEKVSHQAGDCWLIRGPLEYVPSAKVEVVEERQAIPLDQNEGIYVQDVKTGKVRAVIGSTYMLTQDEVLWEKELPSGVEELLNLGHDPLADRGQKGTAKPLQPSAPRNKTRVVSYRVPHNAAVQVYDYRAKRARVVFGPELVTLDPEEQFTVLSLSAGRPKRPHARRALCLLLGPDFFTDVITIETADHARLQLQLAYNWHFELKNRNDPAEAAKLFSVPDFVGDACKAIASRVRGAVASVTFDDFHKNSARIIRMAVFGFEMSEDTGSQWAVGHLMAPDGTLLPKARDQAVFPQNGLVVSSVDVQSVEPVDQRTRDALQRSVQLAIEITTNSQEAAAKHEAQRLEQEARGRLERQKILDQSEAEKARKELLELEAMSMAVESTGNAKAEAESRAEAARIEGEGSVLQAKLKAQALAIETEAELERVKKVREMELIYARAQLELEVSKAQQLANVEAKKFKEMTEALGPGTIRDLAVAGPEMQVKLLQSLGLKSTLITDGSSPINLFSTAFGLLGLGSDGQPPAQK
